Values of other authors as cited in patent publication US20240207202A1, “COMBINATION THERAPIES TARGETING MITOCHONDRIAL BIOGENESIS FOR CANCER THERAPY” (The Wistar Institute of Anatomy and Biology, priority 2015, published 2024).
At least one compound was matched to its structure with a doubt left.

Test system: MitoBiogenesis
Conditions: A375 (24 h) and SK-MEL-28 (48 h); public gene expression microarray data; cited from earlier work

## CCCS(=O)(=O)Nc1ccc(F)c(C(=O)c2c[nH]c3ncc(-c4ccc(Cl)cc4)cc23)c1F [vemurafenib]
  expression of MitoBiogenesis: inhibited
